Source: US20110172232A1, “AMINOACYL PRODRUGS AS AN ACTIVE PHARMACEUTICAL INGREDIENT FOR THROMBOEMBOLIC DISORDERS” (Bayers Schering Pharma Aktiengesellschaft, priority 2007, published 2011)
Where a name gives a salt, the structure may show the parent alone. Some results were stated once for a whole list of compounds, not compound by compound.

Experiment: In vitro stability in rat plasma (HPLC detection)
Type: in vitro ADME
Details: 37° C.
Description: c) In Vitro Stability in Rat Plasma and Human Plasma (HPLC Detection):
0.5 mg of substance is dissolved in 1 ml of dimethyl sulfoxide/water 1:1. 500 μl of this sample solution are mixed with 500 μl of rat plasma at 37° C. and shaken. A first sample (10 μl) is immediately taken for HPLC analysis. In the period up to 2 h after the start of incubation, further aliquots are taken after 2, 5, 10, 30, 60 and 90 min, and the contents of the respective test substance and of the active ingredient compound (A) liberated therefrom are determined.
Agilent 1100 with DAD (G1314A), binary pump (G1312A), autosampler (G1329A), column oven (G1316A), thermostat (G1330A); column: Kromasil 100 C18, 250 mm×4.6 mm, 5 μm; column temperature: 30° C.; mobile phase A: water+5 ml of perchloric acid/liter, mobile phase B: acetonitrile.

## CNCCCC(=O)N(C[C@H]1CN(c2ccc(N3CCOCC3=O)cc2F)C(=O)O1)C(=O)c1ccc(Cl)s1 [Example 13, 5-Chloro-N-[4-(methylamino)butanoyl]-N-({(5S)-2-oxo-3-[2-fluoro-4-(3-oxomorpholin-4-yl)phenyl]-1,3-oxazolidin-5-yl}methyl)thiophene-2-carboxamide hydrochloride]
  time to complete conversion into the active ingredient compound (A): ≤ 5 min

## NCCCC(=O)N(C[C@H]1CN(c2ccc(N3CCOCC3=O)cc2F)C(=O)O1)C(=O)c1ccc(Cl)s1 [Example 19, N-(4-Aminobutanoyl)-5-chloro-N-({(5S)-2-oxo-3-[2-fluoro-4-(3-oxomorpholin-4-yl)phenyl]-1,3-oxazolidin-5-yl}methyl)thiophene-2-carboxamide hydrochloride]
  time to complete conversion into the active ingredient compound (A): ≤ 5 min
